According to the supplement of paper PMC10849652:
This is one part of the list.

The chains behind the UniProt entries cited, without tags or fusion partners. Where a name states a change or a piece, a line headed by the entry shows the natural chain unless it says otherwise.
UniProt P30622: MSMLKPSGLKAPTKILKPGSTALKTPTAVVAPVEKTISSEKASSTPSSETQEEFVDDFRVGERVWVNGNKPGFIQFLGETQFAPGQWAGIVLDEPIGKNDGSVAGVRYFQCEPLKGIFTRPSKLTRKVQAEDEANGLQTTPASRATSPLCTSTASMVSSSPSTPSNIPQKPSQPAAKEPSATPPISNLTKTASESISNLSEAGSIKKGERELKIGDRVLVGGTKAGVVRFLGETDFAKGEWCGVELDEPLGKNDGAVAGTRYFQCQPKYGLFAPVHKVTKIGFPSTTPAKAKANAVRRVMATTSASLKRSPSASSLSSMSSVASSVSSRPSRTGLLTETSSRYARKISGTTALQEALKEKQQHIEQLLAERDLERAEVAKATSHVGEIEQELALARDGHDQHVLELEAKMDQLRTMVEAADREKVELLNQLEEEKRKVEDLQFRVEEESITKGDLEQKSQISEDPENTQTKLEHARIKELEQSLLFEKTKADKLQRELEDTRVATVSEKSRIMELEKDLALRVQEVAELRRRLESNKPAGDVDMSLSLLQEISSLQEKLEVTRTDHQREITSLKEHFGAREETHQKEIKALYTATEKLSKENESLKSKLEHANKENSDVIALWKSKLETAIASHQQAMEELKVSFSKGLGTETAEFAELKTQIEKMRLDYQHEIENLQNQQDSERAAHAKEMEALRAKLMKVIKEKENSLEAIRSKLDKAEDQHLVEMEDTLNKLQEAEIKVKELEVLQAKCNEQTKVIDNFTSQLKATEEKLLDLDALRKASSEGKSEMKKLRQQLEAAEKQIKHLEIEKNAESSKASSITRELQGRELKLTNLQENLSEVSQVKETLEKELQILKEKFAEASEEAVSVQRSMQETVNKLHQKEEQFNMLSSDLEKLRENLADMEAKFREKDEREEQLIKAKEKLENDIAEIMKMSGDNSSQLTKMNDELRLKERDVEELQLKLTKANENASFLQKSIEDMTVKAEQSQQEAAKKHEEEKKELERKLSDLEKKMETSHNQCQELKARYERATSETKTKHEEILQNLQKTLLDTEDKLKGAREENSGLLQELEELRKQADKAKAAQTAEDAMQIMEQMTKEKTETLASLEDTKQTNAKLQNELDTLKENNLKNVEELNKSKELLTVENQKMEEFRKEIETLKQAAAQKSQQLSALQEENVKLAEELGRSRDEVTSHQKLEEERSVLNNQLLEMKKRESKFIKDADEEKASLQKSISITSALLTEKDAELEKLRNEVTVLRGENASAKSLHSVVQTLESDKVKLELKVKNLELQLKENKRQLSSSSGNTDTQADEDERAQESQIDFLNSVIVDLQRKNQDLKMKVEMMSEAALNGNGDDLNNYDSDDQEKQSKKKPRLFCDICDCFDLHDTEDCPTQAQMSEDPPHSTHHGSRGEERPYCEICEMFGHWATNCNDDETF
UniProt Q9UIV1, whole entry, looked up: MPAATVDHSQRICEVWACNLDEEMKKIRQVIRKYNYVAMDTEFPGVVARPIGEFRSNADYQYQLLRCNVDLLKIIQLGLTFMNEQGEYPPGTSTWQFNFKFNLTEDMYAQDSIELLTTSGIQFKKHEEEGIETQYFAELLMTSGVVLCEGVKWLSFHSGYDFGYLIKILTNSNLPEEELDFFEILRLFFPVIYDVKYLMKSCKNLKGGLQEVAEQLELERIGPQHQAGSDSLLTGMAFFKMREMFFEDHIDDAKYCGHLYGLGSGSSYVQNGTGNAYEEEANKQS
UniProt O14967: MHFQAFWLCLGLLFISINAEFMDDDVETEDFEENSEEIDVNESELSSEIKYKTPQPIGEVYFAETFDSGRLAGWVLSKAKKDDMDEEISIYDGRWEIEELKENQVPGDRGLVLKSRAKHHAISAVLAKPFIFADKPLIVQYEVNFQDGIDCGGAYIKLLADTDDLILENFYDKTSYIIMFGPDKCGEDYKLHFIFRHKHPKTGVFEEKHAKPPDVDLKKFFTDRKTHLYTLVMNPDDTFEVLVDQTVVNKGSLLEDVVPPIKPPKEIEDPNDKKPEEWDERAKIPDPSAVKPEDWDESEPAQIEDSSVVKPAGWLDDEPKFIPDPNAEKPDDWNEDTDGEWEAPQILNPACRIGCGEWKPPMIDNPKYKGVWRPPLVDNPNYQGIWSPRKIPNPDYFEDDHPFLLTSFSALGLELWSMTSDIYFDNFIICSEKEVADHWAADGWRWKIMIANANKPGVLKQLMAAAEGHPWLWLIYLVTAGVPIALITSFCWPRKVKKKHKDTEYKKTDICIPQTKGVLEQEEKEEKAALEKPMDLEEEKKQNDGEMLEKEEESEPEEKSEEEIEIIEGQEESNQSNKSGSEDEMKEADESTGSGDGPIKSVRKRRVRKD
UniProt Q9NRP2: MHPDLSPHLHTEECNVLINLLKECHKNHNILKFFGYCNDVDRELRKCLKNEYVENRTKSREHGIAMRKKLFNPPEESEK
UniProt Q99653: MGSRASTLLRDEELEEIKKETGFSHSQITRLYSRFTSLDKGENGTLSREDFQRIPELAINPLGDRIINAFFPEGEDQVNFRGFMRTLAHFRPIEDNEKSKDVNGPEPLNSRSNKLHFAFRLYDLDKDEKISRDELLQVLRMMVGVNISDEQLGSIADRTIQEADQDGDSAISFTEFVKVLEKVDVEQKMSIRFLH
UniProt Q8N3C7: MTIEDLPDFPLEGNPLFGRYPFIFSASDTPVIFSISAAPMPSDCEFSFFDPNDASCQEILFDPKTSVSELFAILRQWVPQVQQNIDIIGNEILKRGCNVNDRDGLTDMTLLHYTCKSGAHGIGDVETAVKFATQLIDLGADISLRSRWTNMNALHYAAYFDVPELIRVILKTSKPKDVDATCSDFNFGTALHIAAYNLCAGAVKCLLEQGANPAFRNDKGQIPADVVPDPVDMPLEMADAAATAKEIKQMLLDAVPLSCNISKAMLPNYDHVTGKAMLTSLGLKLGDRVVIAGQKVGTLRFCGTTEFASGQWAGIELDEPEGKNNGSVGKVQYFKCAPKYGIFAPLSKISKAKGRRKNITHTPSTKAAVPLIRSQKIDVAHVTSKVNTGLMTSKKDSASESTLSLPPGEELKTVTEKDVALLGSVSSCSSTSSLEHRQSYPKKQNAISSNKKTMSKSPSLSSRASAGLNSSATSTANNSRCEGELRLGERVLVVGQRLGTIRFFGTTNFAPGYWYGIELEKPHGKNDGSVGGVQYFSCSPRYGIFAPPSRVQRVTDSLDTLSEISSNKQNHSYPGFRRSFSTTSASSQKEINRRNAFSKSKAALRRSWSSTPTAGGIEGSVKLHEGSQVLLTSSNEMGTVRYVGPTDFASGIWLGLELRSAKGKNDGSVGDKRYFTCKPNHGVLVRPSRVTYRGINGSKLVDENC
UniProt Q96S66: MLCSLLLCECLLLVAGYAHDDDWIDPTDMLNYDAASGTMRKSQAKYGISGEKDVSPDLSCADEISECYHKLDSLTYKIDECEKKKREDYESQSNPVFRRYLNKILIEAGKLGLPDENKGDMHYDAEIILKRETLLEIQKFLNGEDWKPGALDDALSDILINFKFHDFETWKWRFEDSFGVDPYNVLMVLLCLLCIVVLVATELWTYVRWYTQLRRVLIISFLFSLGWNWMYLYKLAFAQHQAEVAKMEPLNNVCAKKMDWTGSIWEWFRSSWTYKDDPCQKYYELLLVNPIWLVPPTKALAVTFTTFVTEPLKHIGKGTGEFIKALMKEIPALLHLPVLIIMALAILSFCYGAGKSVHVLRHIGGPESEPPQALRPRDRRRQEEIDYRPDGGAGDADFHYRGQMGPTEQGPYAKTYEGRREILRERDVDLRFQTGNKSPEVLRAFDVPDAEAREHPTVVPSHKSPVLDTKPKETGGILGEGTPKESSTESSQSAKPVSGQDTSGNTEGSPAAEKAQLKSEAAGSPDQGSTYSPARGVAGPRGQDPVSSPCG
UniProt Q9BW66: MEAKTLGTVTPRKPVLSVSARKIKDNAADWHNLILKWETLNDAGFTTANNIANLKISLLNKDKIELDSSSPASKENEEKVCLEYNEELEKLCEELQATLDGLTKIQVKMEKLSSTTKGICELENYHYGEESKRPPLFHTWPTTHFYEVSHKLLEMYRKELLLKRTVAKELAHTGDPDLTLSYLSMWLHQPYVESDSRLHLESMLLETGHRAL
UniProt Q99439: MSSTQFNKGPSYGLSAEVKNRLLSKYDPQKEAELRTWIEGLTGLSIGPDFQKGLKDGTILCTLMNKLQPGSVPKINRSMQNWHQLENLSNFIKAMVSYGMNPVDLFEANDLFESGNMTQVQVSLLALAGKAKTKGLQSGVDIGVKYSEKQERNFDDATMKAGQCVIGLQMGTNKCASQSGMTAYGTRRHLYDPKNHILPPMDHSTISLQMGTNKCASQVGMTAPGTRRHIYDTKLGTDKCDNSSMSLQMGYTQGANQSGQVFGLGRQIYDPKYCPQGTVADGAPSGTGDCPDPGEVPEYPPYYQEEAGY
UniProt Q9P2E5: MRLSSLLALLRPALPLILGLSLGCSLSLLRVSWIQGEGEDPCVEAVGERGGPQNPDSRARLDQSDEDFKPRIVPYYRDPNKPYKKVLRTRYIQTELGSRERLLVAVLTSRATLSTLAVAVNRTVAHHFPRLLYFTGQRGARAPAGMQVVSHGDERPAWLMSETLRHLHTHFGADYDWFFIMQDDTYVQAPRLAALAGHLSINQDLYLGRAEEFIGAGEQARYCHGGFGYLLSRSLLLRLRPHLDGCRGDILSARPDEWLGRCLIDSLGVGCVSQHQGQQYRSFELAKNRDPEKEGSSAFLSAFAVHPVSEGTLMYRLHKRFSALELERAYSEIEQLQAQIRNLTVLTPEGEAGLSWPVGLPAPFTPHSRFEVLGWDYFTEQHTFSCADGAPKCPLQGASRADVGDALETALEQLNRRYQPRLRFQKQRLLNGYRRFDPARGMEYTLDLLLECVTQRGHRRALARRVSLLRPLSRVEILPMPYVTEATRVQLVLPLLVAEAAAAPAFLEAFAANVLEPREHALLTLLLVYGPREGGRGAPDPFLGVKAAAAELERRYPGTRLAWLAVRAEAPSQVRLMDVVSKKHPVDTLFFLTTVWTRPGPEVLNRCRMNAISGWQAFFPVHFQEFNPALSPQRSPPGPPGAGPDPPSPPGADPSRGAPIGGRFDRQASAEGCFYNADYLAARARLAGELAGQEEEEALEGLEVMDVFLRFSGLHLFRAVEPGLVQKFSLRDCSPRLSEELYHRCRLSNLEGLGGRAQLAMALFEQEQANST
UniProt Q9H6Q4: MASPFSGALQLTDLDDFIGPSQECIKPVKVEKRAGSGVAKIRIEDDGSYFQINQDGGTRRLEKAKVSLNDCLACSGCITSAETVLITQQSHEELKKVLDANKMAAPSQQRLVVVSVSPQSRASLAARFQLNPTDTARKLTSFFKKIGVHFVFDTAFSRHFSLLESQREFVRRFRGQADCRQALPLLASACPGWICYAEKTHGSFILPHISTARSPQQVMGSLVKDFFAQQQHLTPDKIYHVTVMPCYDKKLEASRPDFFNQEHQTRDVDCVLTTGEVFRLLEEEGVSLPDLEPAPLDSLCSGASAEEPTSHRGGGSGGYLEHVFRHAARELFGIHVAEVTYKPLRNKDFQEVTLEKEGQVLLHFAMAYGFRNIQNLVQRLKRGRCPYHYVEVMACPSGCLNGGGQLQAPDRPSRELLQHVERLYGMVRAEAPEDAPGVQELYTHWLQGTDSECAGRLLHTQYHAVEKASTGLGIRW
UniProt P51798: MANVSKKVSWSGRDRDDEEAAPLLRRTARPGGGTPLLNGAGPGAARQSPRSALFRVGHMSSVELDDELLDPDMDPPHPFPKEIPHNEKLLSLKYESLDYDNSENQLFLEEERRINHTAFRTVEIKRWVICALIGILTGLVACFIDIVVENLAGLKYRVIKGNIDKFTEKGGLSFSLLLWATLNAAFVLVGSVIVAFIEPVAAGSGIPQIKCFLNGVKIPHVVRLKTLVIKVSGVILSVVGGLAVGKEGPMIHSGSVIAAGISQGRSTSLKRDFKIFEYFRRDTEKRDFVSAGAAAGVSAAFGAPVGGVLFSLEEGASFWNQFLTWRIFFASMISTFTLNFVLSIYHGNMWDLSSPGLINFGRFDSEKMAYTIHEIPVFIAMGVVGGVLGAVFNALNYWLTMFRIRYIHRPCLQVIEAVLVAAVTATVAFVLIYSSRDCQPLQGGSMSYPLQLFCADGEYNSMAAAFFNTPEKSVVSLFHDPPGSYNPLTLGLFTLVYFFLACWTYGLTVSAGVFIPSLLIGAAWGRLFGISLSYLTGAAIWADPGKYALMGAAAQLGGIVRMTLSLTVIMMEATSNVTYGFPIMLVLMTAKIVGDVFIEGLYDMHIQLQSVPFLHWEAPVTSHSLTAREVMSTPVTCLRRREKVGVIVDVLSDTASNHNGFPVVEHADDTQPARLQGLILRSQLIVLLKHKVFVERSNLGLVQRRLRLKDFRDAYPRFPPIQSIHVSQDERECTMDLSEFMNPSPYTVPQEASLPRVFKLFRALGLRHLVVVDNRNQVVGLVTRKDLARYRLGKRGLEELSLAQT

compound: Cn1cncc1[C@@](N)(c1ccc(Cl)cc1)c1ccc2c(c1)c(-c1cccc(Cl)c1)cc(=O)n2C [tipifarnib]; assay: log2 fold change, soluble protein after heating vs DMSO (PISA); higher = thermal stabilisation; K562 cells, 10 uM, 30 min; active = over 0.2 and 3.5 SD of the protein, either way, in both replicates (recomputed)
Summary of the method: (§1)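 Quantification of soluble protein used TMTpro 16plex LC-MS/MS, with channel sums equalised. Samples were the supernatant after 21,000xg for 90 min of pooled aliquots from K562 cells (2×10^6 cells/mL) treated with 10 μM compound for 30 min, heated for 3 min over 48°C-58°C, and extracted in PBS with 0.5% NP-40 at 4°C. Values, from duplicates, describe thermal stability against control samples on a log2 fold-change scale.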

Target | log2 fold change
CNTN4 (UniProt Q8IWV2) | inactive: -0.097
CLPTM1L (UniProt Q96KA5) | inactive: -0.056
COA7 (UniProt Q96BR5) | inactive: -0.089
CLIP1 isoform 1 (UniProt P30622) | inactive: 0.034
CNNM3 (UniProt Q8NE01) | inactive: -0.045
CNOT7 (UniProt Q9UIV1) | inactive: -0.075
CIZ1 (UniProt Q9ULV3) | inactive: 0.008
CLGN (UniProt O14967) | inactive: 0.067
CHORDC1 (UniProt Q9UHD1) | inactive: -0.073
CMC2 (UniProt Q9NRP2) | inactive: 0.112
CLN8 (UniProt Q9UBY8) | inactive: 0.003
CHP1 (UniProt Q99653) | inactive: 0.072
CKAP5 (UniProt Q14008) | inactive: -0.12
CLTB (UniProt P09497) | inactive: -0.006
CLIP4 (UniProt Q8N3C7) | inactive: 0.104
CLNS1A (UniProt P54105) | inactive: -0.02

Target | log2 fold change
CLCC1 (UniProt Q96S66) | inactive: 0.006
CLPP (UniProt Q16740) | inactive: 0.003
CLUH, A0A494C0R8 | inactive: 0.145
CLIC2 (UniProt O15247) | inactive: -0.053
CNOT2 (UniProt Q9NZN8) | inactive: -0.063
CMBL (UniProt Q96DG6) | inactive: 0
CLIC4 (UniProt Q9Y696) | inactive: 0
CINP isoform 3 (UniProt Q9BW66) | inactive: -0.002
CLIC1 (UniProt O00299) | inactive: 0.013
CNDP2 (UniProt Q96KP4) | inactive: -0.067
CNN2 (UniProt Q99439) | inactive: -0.16
CHPF2 (UniProt Q9P2E5) | inactive: 0.157
CIAO3 (UniProt Q9H6Q4) | inactive: -0.069
CLCN7 (UniProt P51798) | inactive: 0.038
CNTNAP4 (UniProt Q9C0A0) | inactive: 0.078

compound: FC(F)(F)c1ccc(/C=C/c2nc(COc3ccc(CCCCn4ccnn4)cc3)co2)cc1 [mubritinib]; assay: as above
Summary of the method: as §1

Target | log2 fold change
CNTN4 (UniProt Q8IWV2) | inactive: 0.224
CLPTM1L (UniProt Q96KA5) | inactive: 0.02
COA7 (UniProt Q96BR5) | inactive: 0.028
CLIP1 isoform 1 (UniProt P30622) | inactive: 0.036
CNNM3 (UniProt Q8NE01) | inactive: 0.073
CNOT7 (UniProt Q9UIV1) | inactive: 0.014
CIZ1 (UniProt Q9ULV3) | inactive: 0.019
CLGN (UniProt O14967) | inactive: -0.027
CHORDC1 (UniProt Q9UHD1) | inactive: 0.176
CMC2 (UniProt Q9NRP2) | inactive: 0.024
CLN8 (UniProt Q9UBY8) | inactive: -0.08
CHP1 (UniProt Q99653) | inactive: 0.037
CKAP5 (UniProt Q14008) | inactive: -0.021
CLTB (UniProt P09497) | inactive: -0.016
CLIP4 (UniProt Q8N3C7) | inactive: -0.25
CLNS1A (UniProt P54105) | inactive: 0.024

Target | log2 fold change
CLCC1 (UniProt Q96S66) | inactive: 0.002
CLPP (UniProt Q16740) | inactive: 0.004
CLUH, A0A494C0R8 | inactive: 0.072
CLIC2 (UniProt O15247) | inactive: 0.046
CNOT2 (UniProt Q9NZN8) | inactive: 0.054
CMBL (UniProt Q96DG6) | inactive: -0.015
CLIC4 (UniProt Q9Y696) | inactive: 0.084
CINP isoform 3 (UniProt Q9BW66) | inactive: -0.034
CLIC1 (UniProt O00299) | inactive: 0.02
CNDP2 (UniProt Q96KP4) | inactive: 0.101
CNN2 (UniProt Q99439) | inactive: 0.051
CHPF2 (UniProt Q9P2E5) | inactive: -0.021
CIAO3 (UniProt Q9H6Q4) | inactive: 0
CLCN7 (UniProt P51798) | inactive: -0.02
CNTNAP4 (UniProt Q9C0A0) | inactive: -0.224
